According to US6399065 (SCHERING, dated 2002):
Results are given in words; binding and its absence hold for the method and conditions named. Some entries that bind do so weakly or less than the wild type. Where a sequence is shown, tags or fusion partners need not be part of it.

What was measured:
[1] = molecular target: SLAM-Ig (SLAM-immunoglobulin fusion protein: entire extracellular domain of human SLAM fused to the Fc portion of human IgG1 heavy chain) (human) (UniProt Q13291); experiment: native gel electrophoresis (2-25% gradient) and gel filtration
[2] = molecular target: SLAM-Ig (SLAM-immunoglobulin fusion protein: entire extracellular domain of human SLAM fused to the Fc portion of human IgG1 heavy chain) (human) (UniProt Q13291); experiment: native gel electrophoresis
[3] = molecular target: T1, human SLAM (SLAM1, encoded by pSURslam1), cell surface (human) (UniProt Q13291); experiment: flow cytometry on SLAM transfected L cells
T1 sequence: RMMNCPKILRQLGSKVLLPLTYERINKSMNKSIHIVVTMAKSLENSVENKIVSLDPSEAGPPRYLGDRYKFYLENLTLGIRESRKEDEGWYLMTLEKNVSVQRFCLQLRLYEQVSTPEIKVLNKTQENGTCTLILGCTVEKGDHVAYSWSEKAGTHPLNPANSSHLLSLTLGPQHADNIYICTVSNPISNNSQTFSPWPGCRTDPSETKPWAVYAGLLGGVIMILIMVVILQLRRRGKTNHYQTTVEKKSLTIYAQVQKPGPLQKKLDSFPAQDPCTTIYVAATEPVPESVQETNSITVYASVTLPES

[4] = molecular target: T1, human SLAM (SLAM1, encoded by pSURslam1), cell surface (human); experiment: flow cytometry with fluorescein conjugated SLAM-Ig
[5] = molecular target: T1, human SLAM (SLAM1, encoded by pSURslam1), cell surface (human); experiment: flow cytometry on SLAM expressing L cells
[6] = molecular target: T1, human SLAM (SLAM1, encoded by pSURslam1), cell surface (human); experiment: flow cytometry with fluorescein conjugated SLAM-Ig on various cell types
[7] = molecular target: SLAM-Ig (SLAM-immunoglobulin fusion protein: entire extracellular domain of human SLAM fused to the Fc portion of human IgG1 heavy chain) (human) (UniProt Q13291); experiment: native gel electrophoresis of purified SLAM-Ig

binding [1]: binds
binding [2]: binds
binding [3]: binds
binding [4]: binds
binding [5]: binds
binding [6]: binds
binding [7]: binds
B1: SLAM-Ig (SLAM-immunoglobulin fusion protein: entire extracellular domain of human SLAM fused to the Fc portion of human IgG1 heavy chain) (Fc fusion)
chain: ASYGTGGRMMNCPKILRQLGSKVLLPLTYERINKSMNKSIHIVVTMAKSLENSVENKIVSLDPSEAGPPRYLGDRYKFYLENLTLGIRESRKEDEGWYLMTLEKNVSVQRFCLQLRLYEQVSTPEIKVLNKTQENGTCTLILGCTVEKGDHVAYSWSEKAGTHPLNPANSSHLLSLTLGPQHADNIYICTVSNPISNNSQTFSPWPGCRTDPSETKP
notes: Fluorescein conjugated for flow cytometry; also called recombinant SLAM-Ig; soluble form of SLAM (SLAM-Ig); not shown: Fc portion of the human IgG1 heavy chain
